Experimental data reported in patent US20240207458A1 (H. LEE MOFFITT CANCER CENTER AND RESEARCH INSTITUTE, INC., priority 2021, published 2024).

Test: general procedure: Fmoc solid-phase peptide synthesis; HCTU/DIPEA
Settings: late stage modification step, one disulfide bridge, sequence written open
In the case of La-DOTA-Ahx-TATE, the “final HPLC purity” value is reported as 95.6%.
In the case of La-DOTA-D-Lys-D-Glu-TATE, the “final HPLC purity” value is reported as 98.4%.
For La-DOTA-D-Glu-D-Glu-TATE, the “final HPLC purity” value was 97.0%.
For La-DOTA-D-Lys-D-Lys-TATE, the “final HPLC purity” value was 95.2%.
With 139La-DOTA-D-Phe-D-Ala-TATE the “final HPLC purity” value was 100%.
In the case of 139La-DOTA-D-Phe-D-Leu-TATE, the “final HPLC purity” value is reported as 99.2%.

Same assay, conditions: whole synthesis, one disulfide bridge, sequence written open
With DOTA-D-Phe-D-Leu-TATE the “final HPLC purity” value was 100%.
For DOTA-D-Phe-D-Ala-TATE, the “final HPLC purity” value was 99.8%.
With DOTA-di-D-Lys-TATE the “final HPLC purity” value was 98%.
In the case of DOTA-di-D-Glu-TATE, the “final HPLC purity” value is reported as 97%.
With DOTA-D-Lys-D-Glu-TATE the “final HPLC purity” value was 97%.
For DOTA-Ahx-TATE, the “final HPLC purity” value was 96%.
